The list shows a part of the results.
What was measured:
Experiment in all cases: log2 fold change, soluble protein after heating vs DMSO (PISA); higher = thermal stabilisation; K562 lysate, 10 uM; active = over 0.2 and 3.5 SD of the protein, either way, in both replicates (recomputed)
[1] = compound: C1=CC=C(C=C1)[C@H](COC2=CC3=C(C=C2)NC(=O)N3)NC(=O)C4=CC=CN(C4=O)CC5=CC(=C(C=C5)F)F
Method in brief: (§1)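 K562 pellets were dounce-homogenised in PBS pH 7.4 containing 1 mM MgCl2, and the crude extract, at 1 mg/mL protein, was exposed to 10 μM compound for 30 min. Aliquots were heated for 3 min across 48°C-58°C, pooled, brought to 0.5% NP-40 at 4°C and spun at 21,000xg for 90 min, with the supernatant taken as soluble protein. TMTpro 16plex LC-MS/MS with equalised channel sums quantified that protein. Values are log-two fold changes in thermal stability relative to solvent controls, taken from duplicates.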

Protein sequences, listed by entry. Tags and fused reporters are not part of them. Lines headed by an entry give the natural chain unless they say otherwise; changes in a name come on top.
UniProt Q9BTV4: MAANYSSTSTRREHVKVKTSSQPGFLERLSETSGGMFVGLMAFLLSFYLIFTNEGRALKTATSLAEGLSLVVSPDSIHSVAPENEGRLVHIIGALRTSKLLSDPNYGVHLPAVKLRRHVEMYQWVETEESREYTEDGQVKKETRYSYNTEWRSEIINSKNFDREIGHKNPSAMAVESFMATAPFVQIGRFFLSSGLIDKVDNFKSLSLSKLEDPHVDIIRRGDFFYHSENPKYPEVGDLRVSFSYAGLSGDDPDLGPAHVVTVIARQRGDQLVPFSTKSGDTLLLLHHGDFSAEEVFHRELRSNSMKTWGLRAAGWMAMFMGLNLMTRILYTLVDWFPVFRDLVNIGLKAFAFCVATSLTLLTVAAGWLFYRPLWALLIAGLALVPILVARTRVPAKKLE
UniProt Q9P0T7: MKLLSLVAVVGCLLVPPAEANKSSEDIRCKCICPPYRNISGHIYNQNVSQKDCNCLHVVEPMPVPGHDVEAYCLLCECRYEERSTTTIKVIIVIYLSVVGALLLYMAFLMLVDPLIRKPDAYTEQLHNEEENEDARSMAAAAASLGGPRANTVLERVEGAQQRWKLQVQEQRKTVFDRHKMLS
UniProt P62995: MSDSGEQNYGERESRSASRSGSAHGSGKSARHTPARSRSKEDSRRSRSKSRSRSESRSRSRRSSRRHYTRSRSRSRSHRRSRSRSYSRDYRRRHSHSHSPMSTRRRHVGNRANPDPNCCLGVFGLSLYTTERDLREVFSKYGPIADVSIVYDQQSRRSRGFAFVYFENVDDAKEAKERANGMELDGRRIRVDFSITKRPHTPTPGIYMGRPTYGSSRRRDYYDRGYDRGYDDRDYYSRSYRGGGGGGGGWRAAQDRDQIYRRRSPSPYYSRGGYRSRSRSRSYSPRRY
UniProt O96008: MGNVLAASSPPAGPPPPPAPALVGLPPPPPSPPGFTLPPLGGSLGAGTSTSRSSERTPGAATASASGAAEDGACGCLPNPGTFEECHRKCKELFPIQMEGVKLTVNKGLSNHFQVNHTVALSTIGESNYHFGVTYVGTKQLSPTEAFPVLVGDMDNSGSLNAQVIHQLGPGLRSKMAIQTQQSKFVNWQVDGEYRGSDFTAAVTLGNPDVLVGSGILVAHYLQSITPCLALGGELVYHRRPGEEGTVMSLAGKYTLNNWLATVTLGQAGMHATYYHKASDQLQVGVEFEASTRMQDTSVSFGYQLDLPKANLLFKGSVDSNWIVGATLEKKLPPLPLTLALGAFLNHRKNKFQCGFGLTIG
UniProt Q9NVV0: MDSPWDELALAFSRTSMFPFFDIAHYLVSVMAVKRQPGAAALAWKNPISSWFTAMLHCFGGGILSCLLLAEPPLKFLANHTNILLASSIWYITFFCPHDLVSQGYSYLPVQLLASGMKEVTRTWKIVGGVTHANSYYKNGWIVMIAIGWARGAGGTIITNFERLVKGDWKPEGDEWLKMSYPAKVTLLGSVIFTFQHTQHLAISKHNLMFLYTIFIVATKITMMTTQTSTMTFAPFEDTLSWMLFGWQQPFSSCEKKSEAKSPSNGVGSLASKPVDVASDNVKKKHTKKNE
UniProt Q12888: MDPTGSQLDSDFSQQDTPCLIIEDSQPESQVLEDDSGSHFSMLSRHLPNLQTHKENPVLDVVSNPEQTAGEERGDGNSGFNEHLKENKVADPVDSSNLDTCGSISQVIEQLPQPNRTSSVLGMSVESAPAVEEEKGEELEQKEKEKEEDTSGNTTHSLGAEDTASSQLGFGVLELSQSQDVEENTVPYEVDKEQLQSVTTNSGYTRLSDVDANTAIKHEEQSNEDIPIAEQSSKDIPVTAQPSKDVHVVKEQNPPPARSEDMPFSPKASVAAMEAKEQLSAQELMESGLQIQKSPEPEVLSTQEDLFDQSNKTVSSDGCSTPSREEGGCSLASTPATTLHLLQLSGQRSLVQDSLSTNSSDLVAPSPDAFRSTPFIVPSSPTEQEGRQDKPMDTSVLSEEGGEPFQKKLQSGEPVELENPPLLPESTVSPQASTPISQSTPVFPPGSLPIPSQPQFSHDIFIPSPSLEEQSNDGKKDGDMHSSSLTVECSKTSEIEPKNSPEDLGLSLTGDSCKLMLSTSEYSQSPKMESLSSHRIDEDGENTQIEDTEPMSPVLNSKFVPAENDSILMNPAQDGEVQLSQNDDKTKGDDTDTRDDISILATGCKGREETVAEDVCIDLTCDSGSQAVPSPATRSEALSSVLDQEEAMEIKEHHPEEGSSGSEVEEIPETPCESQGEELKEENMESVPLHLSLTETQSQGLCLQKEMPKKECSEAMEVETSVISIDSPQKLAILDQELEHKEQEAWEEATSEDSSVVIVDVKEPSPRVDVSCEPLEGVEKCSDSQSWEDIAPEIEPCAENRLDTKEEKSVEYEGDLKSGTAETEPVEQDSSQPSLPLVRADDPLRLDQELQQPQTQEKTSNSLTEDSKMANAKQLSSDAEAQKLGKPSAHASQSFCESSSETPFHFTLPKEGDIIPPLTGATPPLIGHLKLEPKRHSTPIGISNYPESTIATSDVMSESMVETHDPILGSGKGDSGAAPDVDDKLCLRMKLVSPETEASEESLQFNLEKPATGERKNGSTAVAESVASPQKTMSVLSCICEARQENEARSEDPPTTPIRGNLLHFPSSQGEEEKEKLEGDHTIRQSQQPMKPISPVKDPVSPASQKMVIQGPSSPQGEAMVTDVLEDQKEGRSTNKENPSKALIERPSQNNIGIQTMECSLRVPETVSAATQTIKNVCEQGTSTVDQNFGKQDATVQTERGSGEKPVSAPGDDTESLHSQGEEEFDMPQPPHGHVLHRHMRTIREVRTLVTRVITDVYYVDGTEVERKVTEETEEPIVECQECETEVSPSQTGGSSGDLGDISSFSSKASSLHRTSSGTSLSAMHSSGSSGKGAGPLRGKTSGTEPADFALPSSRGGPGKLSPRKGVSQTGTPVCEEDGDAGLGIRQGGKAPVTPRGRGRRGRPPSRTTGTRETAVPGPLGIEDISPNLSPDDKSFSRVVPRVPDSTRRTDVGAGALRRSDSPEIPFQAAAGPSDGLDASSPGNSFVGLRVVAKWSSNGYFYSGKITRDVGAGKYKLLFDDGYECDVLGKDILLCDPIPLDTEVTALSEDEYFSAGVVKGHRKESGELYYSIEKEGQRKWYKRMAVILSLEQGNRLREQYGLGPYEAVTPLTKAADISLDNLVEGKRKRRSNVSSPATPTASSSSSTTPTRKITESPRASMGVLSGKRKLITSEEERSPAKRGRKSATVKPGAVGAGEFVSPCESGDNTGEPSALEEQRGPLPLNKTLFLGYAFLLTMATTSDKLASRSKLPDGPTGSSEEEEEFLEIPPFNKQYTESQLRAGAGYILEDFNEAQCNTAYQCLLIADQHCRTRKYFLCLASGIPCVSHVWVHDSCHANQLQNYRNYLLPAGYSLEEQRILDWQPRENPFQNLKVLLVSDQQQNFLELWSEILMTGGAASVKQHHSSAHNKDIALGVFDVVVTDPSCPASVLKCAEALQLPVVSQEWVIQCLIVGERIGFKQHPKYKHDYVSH
UniProt Q9UPQ9, whole entry, looked up: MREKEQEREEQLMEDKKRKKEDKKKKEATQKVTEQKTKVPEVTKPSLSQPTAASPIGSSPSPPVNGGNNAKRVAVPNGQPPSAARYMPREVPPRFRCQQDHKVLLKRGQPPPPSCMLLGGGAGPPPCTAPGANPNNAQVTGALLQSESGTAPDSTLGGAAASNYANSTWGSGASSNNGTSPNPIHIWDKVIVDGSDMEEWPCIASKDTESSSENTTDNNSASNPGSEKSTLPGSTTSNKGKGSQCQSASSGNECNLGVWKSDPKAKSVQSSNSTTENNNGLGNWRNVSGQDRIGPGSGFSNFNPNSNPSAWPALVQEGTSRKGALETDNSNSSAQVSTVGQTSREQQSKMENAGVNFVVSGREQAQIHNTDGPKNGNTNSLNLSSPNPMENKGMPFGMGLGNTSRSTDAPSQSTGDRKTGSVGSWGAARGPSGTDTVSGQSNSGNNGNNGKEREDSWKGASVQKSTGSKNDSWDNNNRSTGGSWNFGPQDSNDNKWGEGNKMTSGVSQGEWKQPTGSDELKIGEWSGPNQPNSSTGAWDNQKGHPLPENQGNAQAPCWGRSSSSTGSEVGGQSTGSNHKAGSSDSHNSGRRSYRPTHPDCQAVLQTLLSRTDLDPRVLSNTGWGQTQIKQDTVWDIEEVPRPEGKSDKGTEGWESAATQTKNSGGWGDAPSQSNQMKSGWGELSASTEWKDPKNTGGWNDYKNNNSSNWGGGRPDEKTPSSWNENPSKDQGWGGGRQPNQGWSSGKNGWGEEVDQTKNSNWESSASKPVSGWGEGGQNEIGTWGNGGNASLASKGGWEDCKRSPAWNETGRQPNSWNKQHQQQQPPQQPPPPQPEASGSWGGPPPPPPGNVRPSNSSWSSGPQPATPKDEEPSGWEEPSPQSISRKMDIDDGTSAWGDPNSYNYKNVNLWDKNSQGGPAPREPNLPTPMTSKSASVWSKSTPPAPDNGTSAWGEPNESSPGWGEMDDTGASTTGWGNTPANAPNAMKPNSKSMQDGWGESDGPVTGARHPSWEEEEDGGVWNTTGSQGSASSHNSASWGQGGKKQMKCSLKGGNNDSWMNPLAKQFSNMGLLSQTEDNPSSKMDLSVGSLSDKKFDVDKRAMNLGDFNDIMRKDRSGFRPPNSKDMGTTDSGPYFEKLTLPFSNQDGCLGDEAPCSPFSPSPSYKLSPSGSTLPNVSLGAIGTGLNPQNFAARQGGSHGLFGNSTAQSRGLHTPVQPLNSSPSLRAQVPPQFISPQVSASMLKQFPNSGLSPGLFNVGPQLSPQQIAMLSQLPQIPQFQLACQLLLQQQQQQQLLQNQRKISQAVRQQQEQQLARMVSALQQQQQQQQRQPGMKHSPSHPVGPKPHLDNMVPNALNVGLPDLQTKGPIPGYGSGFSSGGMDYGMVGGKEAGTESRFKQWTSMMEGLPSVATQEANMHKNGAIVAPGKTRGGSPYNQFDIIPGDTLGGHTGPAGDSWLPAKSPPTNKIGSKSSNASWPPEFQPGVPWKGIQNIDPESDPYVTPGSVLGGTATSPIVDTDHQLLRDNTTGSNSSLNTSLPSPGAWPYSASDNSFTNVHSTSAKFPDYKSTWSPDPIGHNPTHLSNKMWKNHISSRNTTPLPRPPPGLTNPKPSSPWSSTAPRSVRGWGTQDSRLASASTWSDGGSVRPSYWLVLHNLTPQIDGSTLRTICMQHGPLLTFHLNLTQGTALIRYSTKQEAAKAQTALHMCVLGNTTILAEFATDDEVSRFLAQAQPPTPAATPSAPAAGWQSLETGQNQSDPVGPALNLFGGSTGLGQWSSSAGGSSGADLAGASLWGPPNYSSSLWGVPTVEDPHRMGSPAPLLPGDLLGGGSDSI
UniProt Q9H497: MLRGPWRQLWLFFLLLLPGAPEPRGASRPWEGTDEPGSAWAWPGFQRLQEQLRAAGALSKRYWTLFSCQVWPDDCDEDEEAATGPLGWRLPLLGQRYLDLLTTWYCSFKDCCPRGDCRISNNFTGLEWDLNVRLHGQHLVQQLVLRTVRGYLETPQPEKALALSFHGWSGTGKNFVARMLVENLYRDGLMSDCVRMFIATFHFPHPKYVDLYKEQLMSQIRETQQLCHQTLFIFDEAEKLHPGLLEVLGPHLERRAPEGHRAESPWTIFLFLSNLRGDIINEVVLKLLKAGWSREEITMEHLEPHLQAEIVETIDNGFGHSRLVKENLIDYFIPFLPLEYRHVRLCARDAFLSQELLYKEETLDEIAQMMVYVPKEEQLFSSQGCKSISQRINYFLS
UniProt Q8NBN3: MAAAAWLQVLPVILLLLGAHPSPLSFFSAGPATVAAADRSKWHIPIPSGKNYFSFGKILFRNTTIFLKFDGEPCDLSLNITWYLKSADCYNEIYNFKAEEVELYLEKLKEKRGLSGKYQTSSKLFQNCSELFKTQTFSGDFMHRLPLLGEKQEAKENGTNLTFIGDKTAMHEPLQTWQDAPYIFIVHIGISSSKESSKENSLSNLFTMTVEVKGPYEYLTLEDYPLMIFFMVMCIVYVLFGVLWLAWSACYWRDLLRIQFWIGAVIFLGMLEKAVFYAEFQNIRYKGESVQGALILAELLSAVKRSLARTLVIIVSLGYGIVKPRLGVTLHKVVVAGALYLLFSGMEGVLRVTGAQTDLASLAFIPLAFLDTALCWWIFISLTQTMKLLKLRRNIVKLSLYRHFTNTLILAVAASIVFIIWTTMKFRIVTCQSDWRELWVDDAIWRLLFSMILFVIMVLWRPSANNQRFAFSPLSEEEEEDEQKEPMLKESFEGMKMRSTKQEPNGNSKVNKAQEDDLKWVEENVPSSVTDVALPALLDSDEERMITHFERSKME
UniProt Q969M1: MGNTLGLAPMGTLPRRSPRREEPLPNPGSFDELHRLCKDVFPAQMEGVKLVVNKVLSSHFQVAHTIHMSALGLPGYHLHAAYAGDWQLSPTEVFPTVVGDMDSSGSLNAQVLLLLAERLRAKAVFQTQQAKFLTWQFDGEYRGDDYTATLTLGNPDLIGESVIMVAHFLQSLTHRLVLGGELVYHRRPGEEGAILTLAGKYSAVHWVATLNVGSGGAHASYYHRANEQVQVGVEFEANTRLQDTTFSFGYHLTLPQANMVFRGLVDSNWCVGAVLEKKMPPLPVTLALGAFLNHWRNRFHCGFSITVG

[2] = compound: CC1=C(SC2=C1C(=N[C@H](C3=NN=C(N32)C)CC(=O)N)C4=CC=C(C=C4)Cl)C
Method in brief: as §1

[3] = compound: CC1=C2C(=CC=C1)N=C(N(C2=O)C3=CC=CC=C3C)CN4C=NC5=C(N=CN=C54)N
Method in brief: as §1

[4] = compound: Cc1sc2c(c1C)C(c1ccc(Cl)cc1)=N[C@@H](CC(=O)OC(C)(C)C)c1nnc(C)n1-2
Method in brief: as §1

[5] = compound: c1ccc([C@@H]2C[C@H]2NC2CCNCC2)cc1
Method in brief: as §1

Measured: log2 fold change

TMEM43 (UniProt Q9BTV4)
inactive: [1] 0.045 | [2] 0.006 | [3] 0.026 | [4] 0.003 | [5] -0.052

TMEM97 (UniProt Q5BJF2)
inactive: [1] 0.048 | [2] 0.015 | [3] -0.016 | [4] -0.081 | [5] -0.153

TNFRSF10B (UniProt O14763)
inactive: [1] 0 | [2] 0.095 | [3] 0.04 | [4] -0.049 | [5] 0.029

TMEM9 (UniProt Q9P0T7)
inactive: [1] 0.028 | [2] -0.036 | [3] 0.004 | [4] 0.004 | [5] 0.075

TRA2B (UniProt P62995)
inactive: [1] 0.027 | [2] -0.029 | [3] 0.03 | [4] -0.026 | [5] 0.002

TOR1AIP1 isoform 3 (UniProt Q5JTV8)
inactive: [1] 0.011 | [2] 0.022 | [3] 0.01 | [4] -0.011 | [5] -0.044

TMUB2 (UniProt Q71RG4)
inactive: [1] 0.066 | [2] -0.027 | [3] -0.009 | [4] -0.04 | [5] 0.009

TPM4 (UniProt P67936)
inactive: [1] -0.003 | [2] 0.057 | [3] -0.021 | [4] -0.025 | [5] -0.04

TOMM40 (UniProt O96008)
inactive: [1] 0.006 | [2] 0 | [3] -0.025 | [4] -0.006 | [5] -0.037

TMEM38B (UniProt Q9NVV0)
inactive: [1] 0.003 | [2] -0.045 | [3] -0.029 | [4] -0.082 | [5] -0.16

TP53BP1 isoform 2 (UniProt Q12888)
inactive: [1] 0.009 | [2] 0.004 | [3] -0.009 | [4] 0.001 | [5] 0.019

TOMM20 (UniProt Q15388)
inactive: [1] 0.05 | [2] 0.015 | [3] 0.036 | [4] -0.027 | [5] -0.024

TPM4 isoform 2 (UniProt P67936)
inactive: [1] -0.059 | [2] -0.012 | [3] 0.02 | [4] 0.053 | [5] 0.1

TMLHE isoform 8 (UniProt Q9NVH6)
inactive: [1] 0.029 | [2] -0.046 | [3] 0.015 | [4] -0.075 | [5] -0.019

TMEM222 (UniProt Q9H0R3)
inactive: [1] 0.197 | [2] 0.13 | [4] -0.204

TNRC6B (UniProt Q9UPQ9)
inactive: [1] -0.044 | [2] -0.02 | [3] -0.019 | [4] -0.003 | [5] -0.041

TOR3A (UniProt Q9H497)
inactive: [1] -0.009 | [2] -0.025 | [3] 0.013 | [4] 0.018 | [5] -0.008

TRABD (UniProt Q9H4I3)
inactive: [1] 0.039 | [2] 0.025 | [3] 0.05 | [4] 0.006 | [5] -0.077

TMEM192 (UniProt Q8IY95)
inactive: [1] 0.005 | [2] -0.056 | [3] -0.026 | [4] -0.013 | [5] 0.007

TMF1 isoform 2 (UniProt P82094)
inactive: [1] 0.076 | [2] 0.006 | [3] 0.043 | [4] -0.05 | [5] -0.034

TPM3 (UniProt P06753)
inactive: [1] -0.018 | [2] 0.008 | [3] -0.018 | [4] 0.015 | [5] 0.057

TMEM263 (UniProt Q8WUH6)
inactive: [1] -0.286 | [2] -0.048 | [3] 0.211 | [4] -0.138 | [5] -0.073

TMPO (UniProt P42166)
inactive: [1] -0.013 | [2] 0.015 | [3] 0.015 | [4] 0.011 | [5] 0.059

TMX2 (UniProt Q9Y320)
inactive: [1] 0.045 | [2] -0.019 | [3] 0.04 | [4] 0.034 | [5] -0.068

TNNI3K isoform 1 (UniProt Q59H18)
inactive: [1] -0.037 | [2] 0.019 | [3] 0.026 | [4] 0.03 | [5] -0.008

TMEM8A (UniProt Q9HCN3)
inactive: [1] -0.132 | [2] 0.04 | [3] -0.027 | [5] -0.053

TOP2A isoform 4 (UniProt P11388)
inactive: [1] -0.008 | [2] -0.008 | [3] 0.045 | [4] -0.033 | [5] -0.041

TNIK (UniProt C9J338)
inactive: [1] -0.028 | [2] 0.067 | [3] 0.135 | [4] -0.225 | [5] -0.375

Looked up one by one from the entries so far, two records:
TMX2 (UniProt Q9Y320)
inactive: [1] 0.045 | [2] -0.019 | [3] 0.04 | [4] 0.034 | [5] -0.068

TOP2A isoform 4 (UniProt P11388)
inactive: [1] -0.008 | [2] -0.008 | [3] 0.045 | [4] -0.033 | [5] -0.041

Going on with the list:

TNIK isoform 4 (UniProt Q9UKE5)
inactive: [1] 0.015 | [2] -0.002 | [3] -0.017 | [4] -0.032 | [5] -0.076

TMEM87A (UniProt Q8NBN3)
inactive: [1] 0.066 | [2] -0.014 | [3] -0.011 | [4] -0.011 | [5] -0.128

TOMM40L (UniProt Q969M1)
inactive: [1] -0.024 | [2] 0.005 | [3] -0.003 | [4] -0.022 | [5] -0.053

TMEM245 (UniProt Q9H330)
inactive: [1] -0.012 | [2] -0.023 | [3] 0.03 | [4] -0.068 | [5] -0.042

TOP1 (UniProt P11387)
inactive: [1] 0 | [2] 0.004 | [3] 0.017 | [4] -0.008 | [5] 0.076

TNKS1BP1 (UniProt Q9C0C2)
inactive: [1] 0.028 | [2] 0.008 | [3] -0.004 | [4] -0.033 | [5] -0.03

TMPPE (UniProt Q6ZT21)
inactive: [1] -0.078 | [2] 0 | [3] 0.038 | [5] -0.008

TMEM62 (UniProt Q0P6H9)
inactive: [1] 0.216 | [2] -0.1 | [3] -0.017 | [4] -0.057 | [5] 0.153

TPM1 (UniProt H7BYY1)
inactive: [1] -0.028 | [2] 0.017 | [3] 0.059 | [4] 0.031 | [5] 0.023
